Test results reported in PMC12431657, “Discovery and mechanistic insights of dibenzoylmethane as a broad spectrum inhibitor of coronavirus” (PLOS Pathogens, 2025).
Where a name gives a salt, the structure may show the parent alone. Read-outs that look alike come from different tables or passages of the source. About 60 (2%) of roughly 3,300 compounds showed an effect of 50% or more. The list shows a part of the results.

System: HCoV-OC43
Parameters: species or system RD; HTS, protection from HCoV-OC43 induced cell death, luminescent cell viability (CellCounting-Lite 2.0), inhibition rate
Settings: 24 h post infection, 1 h compound pre-incubation, 10 µM, inhibitor

Row | Structure (SMILES) | OC43 Inhibition rate [%] | OC43 Inhibition rate (OC43 Inhibition rate, 24 h) [%]
1 | O=C(/C=C/c1ccc(O)c(O)c1)O[C@@H]1C[C@](O)(C(=O)O)C[C@@H](OC(=O)/C=C/c2ccc(O)c(O)c2)[C@H]1O [Isochlorogenic acid A] | -0.8 | 
2 | CCCCCCCC/C=C\CCCCCCCC(=O)OCC(O)CO (centres unmarked) [Monoolein] | 0.1 | 
3 | CC(C)(O)[C@@H]1CC[C@](C)([C@H]2[C@@H](O)C[C@@]3(C)[C@@H]4C[C@H](O)[C@H]5C(C)(C)[C@@H](O[C@@H]6OC[C@@H](O)[C@H](O)[C@H]6O[C@@H]6O[C@H](CO)[C@@H](O)[C@H](O)[C@H]6O)CC[C@@]56C[C@@]46CC[C@]23C)O1 [Astragaloside III] | -3.5 | 
4 | CN(C)CC(=O)O [N-Methylsarcosine] | -3 | 
5 | CC(=O)CCCC(C)CCCC(C)CCCC(C)C (centres unmarked) [Hexahydrofarnesyl acetone] | 3.2 | 
6 | CC(C)(C)c1cc(O)cc(C(C)(C)C)c1 [3,5-Di-tert-butylphenol] | 3.7 | 
7 | CC(=O)c1ccc(O)cc1O [2',4'-Dihydroxyacetophenone] | -0.1 | 
8 | CCCCCCCC/C=C\CCCCCCCC(N)=O [Oleamide] | 11.2 | 
9 | CCC(C(=O)O)C(=O)O [Ethylmalonic acid] | -0.2 | 
10 | CC(O)Cn1cnc2c1c(=O)n(C)c(=O)n2C (centres unmarked) [Proxyphylline] | 1.7 | 
11 | C[C@@H]1[C@H]2c3cc4c(cc3O[C@@]35OCOC3=CC(=O)[C@H](C[C@H]1C)[C@@H]25)OCO4 [Sauchinone] | 41.4 | 
12 | N[C@@H](Cc1c[nH]c2ccccc12)C(=O)O [L-Tryptophan] | 0.3 | 
13 | OCc1c[nH]c2ccccc12 [Indole-3-carbinol] | 2.4 | 
14 | COc1cc2ccc(=O)oc2cc1O[C@@H]1O[C@H](CO)[C@@H](O)[C@H](O)[C@H]1O [Scopolin] | 9 | 
15 | O=C(/C=C/c1ccc(O)c2oc(-c3ccc(O)c(O)c3)cc12)O[C@H](Cc1ccc(O)c(O)c1)C(=O)O [Salvianolic acid C] | 0.9 | 
16 | O=C(/C=C/c1ccc(O)cc1)c1ccc(O)cc1O [Isoliquiritigenin] | -0.5 | 
17 | NCC(O)CCC(N)C(=O)O (racemic) [DL-5-Hydroxylysine (hydrochloride)] | 2.4 | 
18 | COc1c2c(cc3oc(CO)cc(=O)c13)O[C@H](C(C)(C)O)C2 [Cimifugin] | 0.3 | 
20 | Cc1ccc2oc(-c3ccccc3)cc(=O)c2c1 [6-Methylflavone] | 5.1 | 
21 | CC1=C(C)C(=O)O[C@@H]([C@](C)(O)[C@H]2CC[C@H]3[C@@H]4[C@@H]5O[C@@H]5[C@@]5(O)CC=CC(=O)[C@]5(C)[C@H]4CC[C@]23C)C1 [Withanolide A] | 1.1 | 

A few values from the entries so far:
OC43 Inhibition rate [%] with CC(C)(C)c1cc(O)cc(C(C)(C)C)c1 [3,5-Di-tert-butylphenol] reads 3.7
OC43 Inhibition rate [%] with COc1cc2ccc(=O)oc2cc1O[C@@H]1O[C@H](CO)[C@@H](O)[C@H](O)[C@H]1O [Scopolin] reads 9
OC43 Inhibition rate [%] with NCC(O)CCC(N)C(=O)O (racemic) [DL-5-Hydroxylysine (hydrochloride)] reads 2.4
OC43 Inhibition rate [%] with O=C(/C=C/c1ccc(O)c(O)c1)O[C@@H]1C[C@](O)(C(=O)O)C[C@@H](OC(=O)/C=C/c2ccc(O)c(O)c2)[C@H]1O [Isochlorogenic acid A] reads -0.8
OC43 Inhibition rate [%] with CN(C)CC(=O)O [N-Methylsarcosine] reads -3
OC43 Inhibition rate [%] with Cc1ccc2oc(-c3ccccc3)cc(=O)c2c1 [6-Methylflavone] reads 5.1

The results go on.

Row | Structure (SMILES) | OC43 Inhibition rate [%] | OC43 Inhibition rate (OC43 Inhibition rate, 24 h) [%]
22 | CCOC(=O)/C=C/c1ccc(O)c(O)c1 [Ethyl Caffeate] | 0.4 | 
23 | COc1cc([C@@H]2[C@H]3CO[C@@]4(O)C(=O)[C@@H]2C=C([C@H]2Oc5cc(O)cc(O)c5C(=O)[C@@H]2O)[C@@H]34)ccc1O [Silydianin] | -0.1 | 
24 | CCCCCCCC/C=C\CCCCCCCC(=O)O [Oleic acid] |  | -2.1
25 | COc1cc([C@@H]2OC[C@@H]3[C@H]2CO[C@H]3c2cc(OC)c(O[C@@H]3O[C@H](CO)[C@@H](O)[C@H](O)[C@H]3O)c(OC)c2)cc(OC)c1O [Acanthoside B] | -0.4 | 
26 | COc1cc(/C=C/C(=O)OC[C@H]2O[C@H](O[C@]3(CO)O[C@H](CO)[C@@H](O)[C@@H]3OC(=O)/C=C/c3cc(OC)c(OC)c(OC)c3)[C@H](O)[C@@H](O)[C@@H]2O)cc(OC)c1O [Tenuifoliside C] | -0.7 | 
27 | Cc1cn([C@@H]2O[C@H](CO)[C@@H](O)[C@H]2O)c(=O)nc1N [5-Methylcytidine] | -1.4 | 
28 | COc1cc([C@@H]2c3cc4c(cc3C[C@H]3COC(=O)[C@@H]32)OCO4)cc(OC)c1OC [Deoxypodophyllotoxin] | 1 | 
29 | O=C(O)CCCCc1ccccc1 [5-Phenylvaleric acid] | 0.2 | 
30 | C[C@H](CCC(=O)O)[C@H]1CC[C@H]2[C@@H]3[C@@H](O)C[C@@H]4C[C@H](O)CC[C@]4(C)[C@H]3CC[C@]12C [Ursodeoxycholic acid] | 3.5 | 
31 | Cc1cc(C(=O)O)ccc1O [4-Hydroxy-3-methylbenzoic acid] | -0.1 | 
32 | c1ccc(CNc2ncnc3[nH]cnc23)cc1 [6-Benzylaminopurine] | 0.2 | 
33 | CC(=O)O[C@H]1C(=O)[C@@]2(C)[C@H]([C@H](OC(=O)c3ccccc3)[C@]3(O)C[C@H](OC(=O)[C@H](O)[C@@H](NC(=O)c4ccccc4)c4ccccc4)C(C)=C1C3(C)C)[C@]1(OC(C)=O)CO[C@@H]1C[C@@H]2O [7-epi-Taxol] |  | 24.1
34 | COC(=O)Cc1ccc(O)cc1 [Methyl 4-hydroxyphenylacetate] | -0.4 | 
35 | CC(=O)OCCC(C)CCC=C(C)C (centres unmarked) [Citronellyl acetate] | 0.5 | 
36 | Nc1nc2c(ncn2[C@H]2C[C@H](O)[C@@H](CO)O2)c(=O)[nH]1 [2'-Deoxyguanosine monohydrate] |  | -0.2
37 | CN(C)C(N)=NCCC[C@H](N)C(=O)O [Asymmetric dimethylarginine] | -3.3 | 
38 | CCCCCCCCCCCCCC(=O)O[C@H]1CC[C@@]2(C)C(=CC[C@H]3[C@@H]4CC[C@H]([C@H](C)CCCC(C)C)[C@@]4(C)CC[C@@H]32)C1 [Cholesterol myristate] | -0.2 | 
39 | CCCCCC/C(C=O)=C\c1ccccc1 [α-Hexylcinnamaldehyde] | -0.2 | 
40 | CC(C)[C@H](C)CC[C@@H](C)[C@H]1CC[C@H]2[C@@H]3CC=C4C[C@@H](O)CC[C@]4(C)[C@H]3CC[C@]12C [Campesterol] | 8.7 | 
41 | N[C@@H](CS(=O)O)C(=O)O [L-Cysteinesulfinic acid] | 11.1 | 
42 | COc1cc2oc(=O)cc(-c3ccccc3)c2cc1O [Dalbergin] | 0 | 

Row | Structure (SMILES) | OC43 Inhibition rate [%] | OC43 Inhibition rate (OC43 Inhibition rate, 24 h) [%]
43 | Cc1c(O)cc2c(c1O)C(=O)c1ccccc1C2=O [Rubiadin] | 0.3 | 
44 | C=C1C(=O)[C@@]23[C@H](O)C[C@@H]4C(C)(C)C(=O)CC[C@@]4(C)[C@@H]2CC[C@@H]1[C@H]3O [Glaucocalyxin A] | -9.7 | 
45 | COc1cc2c(c(OC)c1OC)-c1c(cc(OC)c(OC)c1OC)C[C@H](C)[C@H](C)C2 [Schisandrin A] | 19.5 | 
46 | CCCCCCCCCC=O [Decyl aldehyde] | -0.7 | 
47 | COc1ccc(C[C@H]2COC(=O)[C@]2(O)Cc2ccc(O[C@@H]3O[C@H](CO)[C@@H](O)[C@H](O)[C@H]3O)c(OC)c2)cc1OC [Tracheloside] | -0.8 | 
48 | Cc1ncc(C[n+]2csc(CCOP(=O)(O)OP(=O)(O)O)c2C)c(N)n1 [Thiamine pyrophosphate] | -6 | 
49 | CCOC(=O)/C=C/C(=O)OCC [Diethyl fumarate] | 0.5 | 
50 | Cn1cnc2c(ncn2[C@@H]2O[C@H](CO)[C@@H](O)[C@H]2O)c1=O [1-Methylinosine] | 0.1 | 
51 | C[C@H](O)[C@H](N)C(=O)O [L-Allothreonine] | 3.7 | 
52 | CC(=O)OC(C)(C)CCC(=O)[C@](C)(O)[C@H]1[C@H](O)C[C@@]2(C)[C@@H]3CC=C4[C@@H](C[C@H](O)[C@@H](O)C4(C)C)[C@]3(C)C(=O)C[C@]12C [Cucurbitacin IIa] | 0.7 | 
53 | CN(CC(=O)O)C(=N)N [Creatine] | 5.6 | 
54 | CC(=O)Oc1ccccc1 [Phenyl acetate] | -0.5 | 
55 | O=C[C@H](O)[C@@H](O)[C@H](O)[C@H](O)CO[C@H]1O[C@H](CO[C@H]2O[C@H](CO)[C@H](O)[C@H](O)[C@H]2O)[C@H](O)[C@H](O)[C@H]1O [Manninotriose] | -0.6 | 
56 | [C-]#[N+]C(=C\c1ccc(OC)cc1)/C(=C/c1ccc(OC)cc1)[N+]#[C-] [Xanthocillin X permethyl ether] | -4.3 | 
57 | C[C@H](CCC(=O)NCCS(=O)(=O)O)[C@H]1CC[C@H]2[C@@H]3CC[C@@H]4C[C@H](O)CC[C@]4(C)[C@H]3C[C@H](O)[C@]12C [Taurodeoxycholate (sodium salt)] | -0.1 | 
58 | COC(=O)C1=CO[C@@H](C)[C@H]2CN3CC[C@]4(C(=O)Nc5ccccc54)[C@@H]3C[C@H]12 [Mitraphylline] | 1.7 | 
59 | COc1ccc(/C=C/C(=O)CC(=O)/C=C/c2ccc(OC)c(OC)c2)cc1 [Di-O-methyldemethoxycurcumin] | 0.9 | 
60 | C=C1[C@@H]2CC[C@H]3[C@]4(C)C[C@H](O[C@@H]5O[C@H](CO)[C@@H](OS(=O)(=O)O)[C@H](OS(=O)(=O)O)[C@H]5OC(=O)CC(C)C)CC(C(=O)O)(C(=O)O)[C@H]4CC[C@]3(C2)[C@H]1O [Carboxyatractyloside (dipotassium)] | -0.1 | 
61 | CC(C)=CCc1c2c(c(O)c3c1O[C@]14C(=C[C@@H]5C[C@@]1(C/C=C(/C)C(=O)O)C(C)(C)O[C@H]4C5=O)C3=O)C=CC(C)(C)O2 [Morellic acid] | -4 | 
62 | C[C@@H]1C[C@H]2OC(=O)[C@@]3(C)CCC[C@@](C)([C@@H]23)[C@@]1(O)CCc1ccoc1 [Marrubiin] | 0.3 | 
